mCherry and percent effect data for 50 compounds are collected here from the supplement of paper PMC8256030.

Each structure is given as a SMILES string. Where “and” joins values, the source holds several entries; their conditions need not be identical. Identical values can stand only once. Some of the results follow. Repeats in this data set agree poorly, so a single value says little.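 HEK293T cells were given each compound shortly before transfection with a reporter in which red mCherry is followed by the SARS-CoV-2 frameshift element and then GFP in the −1 frame, so GFP appears only after frameshifting.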

Assay [1] has as its system SARS-CoV-2 -1 PRF reporter mCherry-FSE-GFP(-1). In words: mCherry (red) intensity as percent of control; higher = higher upstream reporter expression. The following applies: 10 µM; 24 h; HEK293T.
Assay [2] shares this test system. Kind of assay: percent effect, decrease of GFP/mCherry ratio (-1 PRF reporter) relative to controls; higher = stronger frameshift inhibition. Particulars: 10 µM; 24 h; HEK293T.

As for `CCN(CC)C(C)CN1c2ccccc2Sc2ccccc21` (stereo not given) [profenamine], the mCherry in assay [1] stood at 127%. For the same compound, in assay [2], the percent effect was -4.38%.
The compound `CCC[C@@H]1C[C@@H](C(=O)N[C@@H]([C@H]2O[C@H](SC)[C@H](O)[C@@H](O)[C@H]2O)[C@H](C)Cl)N(C)C1` came in with a mCherry in assay [1] of 96.1%. Besides, the percent effect in assay [2] is 0.376%.
The compound `CN(Cc1ccc(C(C)(C)C)cc1)Cc1cccc2ccccc12` [butenafine] yielded a mCherry in assay [1] of 108%. Besides, the percent effect in assay [2] was 2.88%.
With `CCCCOc1ccc(CC(=O)NO)cc1` [bufexamac], the mCherry in assay [1] was 129%. In assay [2], the percent effect was -3.56%.
`CCCCCCCCCCCCCCCC[N+](C)(C)CCN(Cc1ccc(OC)cc1)c1ncccn1` [tonzonium bromide] returned a mCherry in assay [1] of 124%. For the same compound, the percent effect in assay [2] was -0.65%.
For the compound `CN1CCN(C2=Nc3cc(F)ccc3Cc3ccccc32)CC1` [fluperlapine], the mCherry in assay [1] was found to be 48.1%. The percent effect in assay [2] was -6.23%.
`CCOC(=O)[C@H]1O[C@@H]1C(=O)N[C@@H](CC(C)C)C(=O)NCCC(C)C` [aloxistatin] had a mCherry in assay [1] of 118%. In addition, the percent effect in assay [2] was -0.00887%.
In assay [1], `NCCCC[C@H](NC(=O)[C@@H](Cc1cc(Br)c(O)c(Br)c1)NC(=O)N1CCC(N2Cc3ccccc3NC2=O)CC1)C(=O)N1CCN(c2ccncc2)CC1` [olcegepant] yielded a mCherry of 100%. Further, the percent effect in assay [2] was -0.139%.
As to `CC[C@H](c1ccc(O)cc1)[C@@H](CC)c1ccc(O)cc1` [hexestrol], the mCherry in assay [1] is 108% and 104%. Also, the percent effect in assay [2] was -3.29% and -4.83%.
As to `CCCc1nc(C)c2c(=O)nc(-c3cc(S(=O)(=O)N4CCN(CC)CC4)ccc3OCC)[nH]n12` [vardenafil], the mCherry in assay [1] came to 93.7%. The percent effect in assay [2] is -0.752%.
In turn, `NS(=O)(=O)Cc1noc2ccccc12` [zonisamide] showed a mCherry in assay [1] of 101%. Moreover, in assay [2], the percent effect was found to be 3.51%.
In assay [1], `N[C@@H](Cc1cc(I)c(Oc2ccc(O)c(I)c2)c(I)c1)C(=O)O` displayed a mCherry of 106%. The percent effect in assay [2] is -2.12%.
`CC(=O)O[C@H]1C[C@@]2(C)[C@@H](C[C@@H](O)[C@H]3[C@@]4(C)CC[C@@H](O)[C@@H](C)[C@@H]4CC[C@@]32C)/C1=C(\CCC=C(C)C)C(=O)O` [fusidic acid] had a mCherry in assay [1] of 90.1%. In assay [2], the percent effect was -0.934%.
`Oc1ccc(Cl)c2c1CCC2` [clorindanol]: the mCherry in assay [1] came to 108%. Further, the percent effect in assay [2] is -6.61%.
As for `CNS(=O)(=O)Cc1ccc2[nH]cc(CCN(C)C)c2c1` [Sumatriptan Succinate], the mCherry in assay [1] turned out to be 86.6%. Further, the percent effect in assay [2] is -1.47%.
In assay [1], `CCC1Nc2cc(Cl)c(S(N)(=O)=O)cc2S(=O)(=O)N1` (stereo not given) [ethiazide] came in with a mCherry of 67.7%. Besides, the percent effect in assay [2] came to 3.86%.
Turning to `Cc1onc(-c2c(Cl)cccc2Cl)c1C(=O)N[C@@H]1C(=O)N2[C@@H]1SC(C)(C)[C@@H]2C(=O)O`, the mCherry in assay [1] turned out to be 124%. For the same compound, the percent effect in assay [2] is -2.31%.
Consider `Nc1nc(=O)c(Br)c(-c2ccccc2)[nH]1` [bropirimine], for which the mCherry in assay [1] amounted to 134%. Further, the percent effect in assay [2] turned out to be 9.55%.
`CN1CCC(=C2c3ccccc3CCn3c(C=O)cnc32)CC1` [alcaftadine] gave a mCherry in assay [1] of 105%. Moreover, the percent effect in assay [2] is -0.287%.
Take `OCc1ccccc1` [benzyl alcohol]: in assay [1], the mCherry was 119%. Moreover, in assay [2], the percent effect is -1.61%.
Regarding `Cc1onc(-c2ccccc2)c1C(=O)N[C@@H]1C(=O)N2[C@@H]1SC(C)(C)[C@@H]2C(=O)O` [Oxacillin], the mCherry in assay [1] came out at 71.6%. Moreover, in assay [2], the percent effect was -7.18%.
For `Cc1cc2c(cc1CC(=O)c1sccc1S(=O)(=O)Nc1onc(C)c1Cl)OCO2` [Sitaxentan], in assay [1], the mCherry stood at 82.5%. Besides, the percent effect in assay [2] is -3.1%.
On to `Nc1cccc(-n2ccccc2=O)c1` [amphenidone], for which, in assay [1], the mCherry came out at 73.4%. For the same compound, the percent effect in assay [2] is -8.99%.
With `CN1CCC(=C2c3ccccc3C=Cc3ccccc32)CC1` [cyproheptadine], in assay [1], the mCherry is 105% and 83.2%. In addition, the percent effect in assay [2] was -0.635% and -2.3%.
For the compound `NC(N)=Nc1nc(CSCC/C(N)=N/S(N)(=O)=O)cs1` [famotidine], in assay [1], the mCherry was 113% and 110%. Moreover, the percent effect in assay [2] is -2.91% and -5.01%.
`CC(CN(C)C)CN1c2ccccc2Sc2ccccc21` (stereo not given) [alimemazine]: the mCherry in assay [1] turned out to be 129%. The percent effect in assay [2] is -4.1%.
With `CC(C)/N=c1\cc2n(-c3ccc(Cl)cc3)c3ccccc3nc-2cc1Nc1ccc(Cl)cc1` [clofazimine], the mCherry in assay [1] is 115%. Moreover, the percent effect in assay [2] was 1.31% and -1.39%.
For the compound `CC(C)[C@@H]1NC(=O)[C@H](CCCCN)NC(=O)[C@@H](Cc2c[nH]c3ccccc23)NC(=O)[C@H](Cc2ccc(O)cc2)NC(=O)[C@H](C)N(C)C(=O)[C@H](Cc2ccccc2)NC1=O` [seglitide], in assay [1], the mCherry was found to be 95.6%. Also, the percent effect in assay [2] is -0.587%.
Turning to `CO[C@H]1C[C@H](O[C@H]2[C@H](C)[C@@H](O[C@@H]3O[C@H](C)C[C@H](N(C)C)[C@H]3O)[C@@H](C)C[C@@]3(CO3)C(=O)[C@H](C)[C@@H](O)[C@@H](C)[C@@H](C)OC(=O)[C@@H]2C)O[C@@H](C)[C@@H]1O`, the mCherry in assay [1] was 97.2%. Besides, in assay [2], the percent effect was -2.14%.
Turning to `C=CCOc1ccc(CC(=O)O)cc1Cl` [alclofenac], the mCherry in assay [1] was 80.8%. The percent effect in assay [2] is -4.92%.
In turn, `CC(=O)c1ccc2c(c1)N(CCCN1CCC(CCO)CC1)c1ccccc1S2` [piperacetazine] registered a mCherry in assay [1] of 88.1%. Moreover, in assay [2], the percent effect is -3.64%.
`NS(=O)(=O)c1ccc(Cl)c(S(N)(=O)=O)c1` [clofenamide]: the mCherry in assay [1] stood at 99.4%. In addition, in assay [2], the percent effect is -7.5%.
In the case of `O=C1NC(=O)C(c2ccccc2)(c2ccccc2)N1` [phenytoin], in assay [1], the mCherry was 96.8% and 110%. Further, the percent effect in assay [2] is -0.981% and 2.6%.
In assay [1], `O=C(O)c1cc(O)c2c(c1)C(C1c3cc(C(=O)O)cc(O)c3C(=O)c3c(OC4OC(CO)C(O)C(O)C4O)cccc31)c1cccc(OC3OC(CO)C(O)C(O)C3O)c1C2=O` (stereo not given) returned a mCherry of 104%. The percent effect in assay [2] was -0.338%.
With `C[C@H](CCC(=O)NCCS(=O)(=O)O)[C@H]1CC[C@H]2[C@@H]3[C@H](O)C[C@@H]4C[C@H](O)CC[C@]4(C)[C@H]3C[C@H](O)[C@]12C` [Taurocholic acid], in assay [1], the mCherry was 88.9%. Besides, the percent effect in assay [2] is -5.18%.
`CN1CCC(=C2c3ccccc3CCc3cccnc32)CC1` showed a mCherry in assay [1] of 123%. In addition, the percent effect in assay [2] is -3.52%.
`CC(C)=CCOc1ccc(/C=C/C(=O)c2ccc(OCC=C(C)C)cc2OCC(=O)O)cc1` [sofalcone] yielded a mCherry in assay [1] of 93.5%. Moreover, the percent effect in assay [2] was -3.71%.
With `CN1[C@@H]2CC[C@H]1C[C@@H](OC(=O)c1c[nH]c3ccccc13)C2` [tropisetron], in assay [1], the mCherry came out at 91.6%. The percent effect in assay [2] is -3.75%.
For the compound `CO[C@@]1(NC(=O)Cc2cccs2)C(=O)N2C(C(=O)O)=C(COC(N)=O)CS[C@@H]21` [cefoxitin], in assay [1], the mCherry was 79%. The percent effect in assay [2] was -14.5%.
`CC(C)CCCC(C)NC(C)C` (stereo not given) [iproheptine] showed a mCherry in assay [1] of 101%. In assay [2], the percent effect is -3.2%.
For `CC(=O)OCC(=O)[C@@]1(O)CC[C@H]2[C@@H]3CCC4=CC(=O)C=C[C@]4(C)[C@@]3(F)[C@@H](O)C[C@@]21C` the same measures were 123% and 1.49%.
In turn, `O=c1cc(CN2CCOCC2)c2ccc(O)cc2o1` [oxazorone] gave a mCherry in assay [1] of 97.1%. The percent effect in assay [2] is -9.24%.
For `CCC(=O)OCC(=O)[C@@]1(OC(=O)CC)[C@H](C)C[C@H]2[C@H]3[C@H]([C@@H](O)C[C@@]21C)[C@@]1(C)C=CC(=O)C=C1C[C@H]3Cl` [Alclometasone], the mCherry in assay [1] worked out at 92.6%. Further, in assay [2], the percent effect was -1.22%.
With `CCCCC[C@H](O)/C=C/[C@H]1[C@H](O)CC(=O)[C@@H]1C/C=C\CCCC(=O)O` [dinoprostone], the mCherry in assay [1] is 102% and 97.6%. For the same compound, in assay [2], the percent effect was -5.34% and -1.22%.
In the case of `CCC1(C)OC(=O)N(C)C1=O` (stereo not given) [paramethadione], the mCherry in assay [1] was 114%. Further, the percent effect in assay [2] is -0.792%.
Compound `COC(=O)/C=C/C(=O)OC` had a mCherry in assay [1] of 155%. In addition, the percent effect in assay [2] is -1.89%.
Turning to `Nc1ccc(S(=O)(=O)c2ccc(N)cc2)cc1` [dapsone], in assay [1], the mCherry was 97.1%. In addition, in assay [2], the percent effect was -3.53%.
`O=c1cc[nH]c(=O)[nH]1` yielded a mCherry in assay [1] of 82.3%. The percent effect in assay [2] was -1.38%.
For `CN(C)[C@@H]1C(=O)C(C(N)=O)=C(O)[C@@]2(O)C(=O)C3=C(O)c4c(O)ccc(Cl)c4[C@@H](O)[C@H]3C[C@@H]12` [Demeclocycline] the same measures were 82.9% and 1.63%.
As to `Nc1nc2[nH]cc(CCc3ccc(C(=O)N[C@@H](CCC(=O)O)C(=O)O)cc3)c2c(=O)[nH]1` [pemetrexed], the mCherry in assay [1] is 129% and 135%. The percent effect in assay [2] was 5.09% and -1.86%.
